Source: PubChem BioAssay AID330 (DTP/NCI, 2004)
The list shows only some results of the screen, not a fair sample: it gathers some chemical classes. Other doses and runs of a compound may be missing. T/C is the treated group as % of the vehicle group. For survival time, this PubChem deposit counts one and a half times the control or more as active, and values a quarter to a half above the control carry no call in these data; other NCI protocols may use other cut-offs. Schedule codes are those of the source, read here as Q, the interval in days (D) or hours (H), X, the number of doses. Some entries show no survivor count and are marked so; the dose need not have been tolerated. Signs of the kind (2×) say how often a value occurs here. Some entries were tested several times; the results are listed from low to high.

System: P388 leukemia ip, CD2F1 mice, survival T/C
Experiment: NCI In Vivo Anticancer Drug Screen. Data for tumor model P388 Leukemia (intraperitoneal) in CD2F1 (CDF1) mice
Details: T/C endpoint: median survival time, higher T/C = longer survival

**Q.** `CC(=O)OCC12CCC(C)=CC1OC1C(O)C(OC(C)=O)C2(C)C12CO2` (configuration not stated) was tested. Which T/C (dose: 1.0 mg/kg/injection, schedule: Q01DX005 (iv), vehicle: saline) did it give?
**A.** Its T/C is 151 % of control [survivor count not shown].

**Q.** What about the T/C (dose: 1.0 mg/kg/injection, schedule: Q01DX009 (ip), vehicle: saline + alcohol, evaluated on day 30) of the same compound?
**A.** The T/C was 166 [survivor count not shown], 172 [survivor count not shown], 187 % of control [survivor count not shown].

**Q.** And the T/C (dose: 1.0 mg/kg/injection, schedule: Q01DX009 (ip), vehicle: saline + alcohol, evaluated on day 35)?
**A.** Its T/C is 201 % of control [survivor count not shown].

**Q.** What about the T/C (dose: 1.0 mg/kg/injection, schedule: Q01DX009 (ip), vehicle: saline sonified) of the same compound?
**A.** Its T/C is 129 % of control [survivor count not shown].

**Q.** And the T/C (dose: 1.0 mg/kg/injection, schedule: Q01DX009 (ip), vehicle: saline with Tween-80)?
**A.** The T/C was 142 [survivor count not shown], 167 [survivor count not shown], 176 % of control [survivor count not shown].

**Q.** And the T/C (dose: 1.0 mg/kg/injection, schedule: Q01DX009 (ip), vehicle: saline, evaluated on day 5)?
**A.** Its T/C is 181 [survivor count not shown] and 187 % of control [survivor count not shown].

**Q.** What about the T/C (dose: 1.0 mg/kg/injection, schedule: Q01DX009 (ip), vehicle: saline, evaluated on day 30) of the same compound?
**A.** Its T/C is 100 [survivor count not shown], 133 [survivor count not shown], 155 [survivor count not shown], 162 [survivor count not shown], 173 [survivor count not shown], 174 [survivor count not shown], 175 [survivor count not shown], 183 [survivor count not shown], 217 % of control [survivor count not shown].

**Q.** What about the T/C (dose: 1.0 mg/kg/injection, schedule: Q01DX009 (ip), vehicle: saline, evaluated on day 60) of the same compound?
**A.** Its T/C is 170 % of control [survivor count not shown].

**Q.** What about the T/C (dose: 1.0 mg/kg/injection, schedule: Q01DX009 (ip), vehicle: water, evaluated on day 30) of the same compound?
**A.** The T/C was 158 [survivor count not shown], 163 [survivor count not shown], 172 [survivor count not shown], 175 [survivor count not shown], 183 % of control [survivor count not shown].

**Q.** What about the T/C (dose: 1.0 mg/kg/injection, schedule: Q01DX009 (ip), vehicle: water, evaluated on day 45) of the same compound?
**A.** Its T/C is 187 % of control [survivor count not shown].

**Q.** What about the T/C (dose: 1.0 mg/kg/injection, schedule: Q01DX009 (iv), vehicle: saline) of the same compound?
**A.** Its T/C is 163 % of control [survivor count not shown].

**Q.** What about the T/C (dose: 1.0 mg/kg/injection, schedule: Q01DX009 (oral), vehicle: saline) of the same compound?
**A.** Its T/C is 130 % of control [survivor count not shown].

**Q.** And the T/C (dose: 1.0 mg/kg/injection, schedule: Q01DX009 (sc), vehicle: saline)?
**A.** The T/C was 170 % of control [survivor count not shown].

**Q.** And the T/C (dose: 1.0 mg/kg/injection, schedule: Q03HX024 (ip), vehicle: saline)?
**A.** Its T/C is 190 % of control [survivor count not shown].

**Q.** What about the T/C (dose: 1.94 mg/kg/injection, schedule: Q04DX003 (ip), vehicle: saline) of the same compound?
**A.** Its T/C is 146 % of control [survivor count not shown].

**Q.** And the T/C (dose: 2.0 mg/kg/injection, schedule: Q01DX001 (ip), vehicle: saline)?
**A.** The T/C was 118 % of control [survivor count not shown].

**Q.** What about the T/C (dose: 2.0 mg/kg/injection, schedule: Q01DX005 (ip), vehicle: saline) of the same compound?
**A.** The T/C was 158 % of control [survivor count not shown].

**Q.** What about the T/C (dose: 2.0 mg/kg/injection, schedule: Q01DX005 (ip), vehicle: water) of the same compound?
**A.** Its T/C is 166 [survivor count not shown] and 175 % of control [survivor count not shown].

**Q.** And the T/C (dose: 2.0 mg/kg/injection, schedule: Q01DX005 (iv), vehicle: saline)?
**A.** The T/C was 98 % of control [survivor count not shown].

**Q.** What about the T/C (dose: 2.0 mg/kg/injection, schedule: Q01DX009 (ip), vehicle: saline + alcohol, evaluated on day 30) of the same compound?
**A.** The T/C was 187 [survivor count not shown], 188 [survivor count not shown], 189 % of control [survivor count not shown].

**Q.** And the T/C (dose: 2.0 mg/kg/injection, schedule: Q01DX009 (ip), vehicle: saline + alcohol, evaluated on day 35)?
**A.** Its T/C is 192 % of control [survivor count not shown].

**Q.** And the T/C (dose: 2.0 mg/kg/injection, schedule: Q01DX009 (ip), vehicle: saline with Tween-80)?
**A.** The T/C was 151 [survivor count not shown], 169 [survivor count not shown], 209 % of control [survivor count not shown].

**Q.** What about the T/C (dose: 2.0 mg/kg/injection, schedule: Q01DX009 (ip), vehicle: saline, evaluated on day 5) of the same compound?
**A.** Its T/C is 178 [survivor count not shown] and 229 % of control [survivor count not shown].

**Q.** What about the T/C (dose: 2.0 mg/kg/injection, schedule: Q01DX009 (ip), vehicle: saline, evaluated on day 30) of the same compound?
**A.** Its T/C is 174 [survivor count not shown], 183 [survivor count not shown], 184 [survivor count not shown], 189 [survivor count not shown], 191 [survivor count not shown], 200 [survivor count not shown], 202 % of control [survivor count not shown].

**Q.** And the T/C (dose: 2.0 mg/kg/injection, schedule: Q01DX009 (ip), vehicle: water, evaluated on day 30)?
**A.** The T/C was 187 [survivor count not shown], 199 [survivor count not shown] (2×), 207 [survivor count not shown], 211 % of control [survivor count not shown].

**Q.** What about the T/C (dose: 2.0 mg/kg/injection, schedule: Q01DX009 (ip), vehicle: water, evaluated on day 45) of the same compound?
**A.** The T/C was 202 % of control [survivor count not shown].

**Q.** What about the T/C (dose: 2.0 mg/kg/injection, schedule: Q01DX009 (oral), vehicle: saline) of the same compound?
**A.** Its T/C is 190 % of control [survivor count not shown].

**Q.** And the T/C (dose: 2.0 mg/kg/injection, schedule: Q04DX002 (ip), vehicle: saline + alcohol)?
**A.** The T/C was 120 [survivor count not shown], 122 [survivor count not shown], 123 [survivor count not shown], 126 [survivor count not shown], 129 % of control [survivor count not shown].

**Q.** And the T/C (dose: 2.0 mg/kg/injection, schedule: Q04DX003 (ip), vehicle: saline)?
**A.** The T/C was 136 % of control [survivor count not shown].

**Q.** And the T/C (dose: 2.59 mg/kg/injection, schedule: Q04DX003 (ip), vehicle: saline)?
**A.** Its T/C is 142 % of control [survivor count not shown].

**Q.** What about the T/C (dose: 4.0 mg/kg/injection, schedule: Q01DX001 (ip), vehicle: saline) of the same compound?
**A.** Its T/C is 122 [survivor count not shown] and 123 % of control [survivor count not shown].

**Q.** And the T/C (dose: 4.0 mg/kg/injection, schedule: Q01DX001 (iv), vehicle: saline)?
**A.** Its T/C is 125 % of control [survivor count not shown].

**Q.** What about the T/C (dose: 4.0 mg/kg/injection, schedule: Q01DX001 (oral), vehicle: saline) of the same compound?
**A.** The T/C was 125 % of control [survivor count not shown].

**Q.** And the T/C (dose: 4.0 mg/kg/injection, schedule: Q01DX001 (sc), vehicle: saline)?
**A.** The T/C was 113 % of control [survivor count not shown].

**Q.** What about the T/C (dose: 4.0 mg/kg/injection, schedule: Q01DX005 (ip), vehicle: saline) of the same compound?
**A.** The T/C was 178 % of control [survivor count not shown].

**Q.** And the T/C (dose: 4.0 mg/kg/injection, schedule: Q01DX005 (ip), vehicle: water)?
**A.** The T/C was 177 [survivor count not shown] and 180 % of control [survivor count not shown].

**Q.** And the T/C (dose: 4.0 mg/kg/injection, schedule: Q01DX009 (ip), vehicle: saline + alcohol, evaluated on day 30)?
**A.** The T/C was 100 [survivor count not shown], 112 [survivor count not shown], 198 % of control [survivor count not shown].

**Q.** And the T/C (dose: 4.0 mg/kg/injection, schedule: Q01DX009 (ip), vehicle: saline + alcohol, evaluated on day 35)?
**A.** Its T/C is 122 % of control [survivor count not shown].

**Q.** And the T/C (dose: 4.0 mg/kg/injection, schedule: Q01DX009 (ip), vehicle: saline with Tween-80)?
**A.** The T/C was 169 [survivor count not shown], 185 [survivor count not shown], 219 % of control [survivor count not shown].

**Q.** And the T/C (dose: 4.0 mg/kg/injection, schedule: Q01DX009 (ip), vehicle: saline, evaluated on day 5)?
**A.** Its T/C is 86 % of control [survivor count not shown] (2×).

**Q.** What about the T/C (dose: 4.0 mg/kg/injection, schedule: Q01DX009 (ip), vehicle: saline, evaluated on day 30) of the same compound?
**A.** The T/C was 88 [survivor count not shown], 97 [survivor count not shown], 198 [survivor count not shown], 211 [survivor count not shown], 214 [survivor count not shown], 232 % of control [survivor count not shown].

**Q.** And the T/C (dose: 4.0 mg/kg/injection, schedule: Q01DX009 (ip), vehicle: saline, evaluated on day 60)?
**A.** Its T/C is 155 % of control [survivor count not shown].

**Q.** What about the T/C (dose: 4.0 mg/kg/injection, schedule: Q01DX009 (ip), vehicle: water) of the same compound?
**A.** The T/C was 86 [survivor count not shown] and 113 % of control [survivor count not shown].

**Q.** And the T/C (dose: 4.0 mg/kg/injection, schedule: Q01DX009 (oral), vehicle: saline)?
**A.** Its T/C is 110 % of control [survivor count not shown].

**Q.** What about the T/C (dose: 4.0 mg/kg/injection, schedule: Q04DX002 (ip), vehicle: saline + alcohol) of the same compound?
**A.** The T/C was 127 [survivor count not shown] (2×), 128 [survivor count not shown], 129 [survivor count not shown], 132 % of control [survivor count not shown].

**Q.** What about the T/C (dose: 4.0 mg/kg/injection, schedule: Q04DX003 (ip), vehicle: saline) of the same compound?
**A.** The T/C was 145 [survivor count not shown] and 154 % of control [survivor count not shown].

**Q.** And the T/C (dose: 4.0 mg/kg/injection, schedule: Q08DX002 (ip), vehicle: saline)?
**A.** Its T/C is 118 [survivor count not shown] and 127 % of control [survivor count not shown].

**Q.** What about the T/C (dose: 4.32 mg/kg/injection, schedule: Q04DX003 (ip), vehicle: saline) of the same compound?
**A.** Its T/C is 149 % of control [survivor count not shown].

**Q.** What about the T/C (dose: 5.4 mg/kg/injection, schedule: Q04DX003 (ip), vehicle: saline) of the same compound?
**A.** The T/C was 147 % of control [survivor count not shown].

**Q.** What about the T/C (dose: 7.2 mg/kg/injection, schedule: Q04DX003 (ip), vehicle: saline) of the same compound?
**A.** The T/C was 160 % of control [survivor count not shown].

**Q.** And the T/C (dose: 8.0 mg/kg/injection, schedule: Q01DX001 (ip), vehicle: saline)?
**A.** The T/C was 123 % of control [survivor count not shown].

**Q.** What about the T/C (dose: 8.0 mg/kg/injection, schedule: Q01DX001 (iv), vehicle: saline) of the same compound?
**A.** The T/C was 130 % of control [survivor count not shown].

**Q.** And the T/C (dose: 8.0 mg/kg/injection, schedule: Q04DX002 (ip), vehicle: saline + alcohol)?
**A.** The T/C was 122 [survivor count not shown], 127 [survivor count not shown] (2×), 135 % of control [survivor count not shown].

**Q.** What about the T/C (dose: 8.0 mg/kg/injection, schedule: Q04DX003 (ip), vehicle: saline) of the same compound?
**A.** Its T/C is 145 % of control [survivor count not shown] (2×).

**Q.** What about the T/C (dose: 8.0 mg/kg/injection, schedule: Q08DX002 (ip), vehicle: saline) of the same compound?
**A.** Its T/C is 136 % of control [survivor count not shown] (2×).

**Q.** What about the T/C (dose: 16.0 mg/kg/injection, schedule: Q04DX002 (ip), vehicle: saline + alcohol) of the same compound?
**A.** Its T/C is 142 % of control [survivor count not shown].

**Q.** And the T/C (dose: 16.0 mg/kg/injection, schedule: Q08DX002 (ip), vehicle: saline)?
**A.** Its T/C is 90 % of control [survivor count not shown].
